These are yes or no findings as the source states them, for the method shown. Binding calls can cover weak binding; strength is not graded here. For some assays here: Sequences can lack the tags named with a protein.
How the values were obtained:
[1] = target: MBP fused ACR4 intracellular domain (mACR4), unphosphorylated (Arabidopsis) (UniProt Q9LX29); test: pull-down; mACR4 bait (20 μg, ~0.4 μM) on amylose resin, SUMO-fused prey (30 μg, ~1 μM); proteins naive or autophosphorylated 1 h with 100 μM ATP beforehand; Binding Buffer 50 mM Tris-HCl pH 7.4, 150 mM NaCl, 1 mM DTT, 0.02% NP-40, room temperature; coomassie and anti-SUMO blot; both purified
[2] = target: T1, MBP-fused WOX5 (mWOX5) (Arabidopsis) (UniProt Q8H1D2); test: pull-down; mWOX5 (or MBP) bait 20 μg on amylose resin, sACR4 (naive or autophosphorylated) or SUMO prey 30 μg; Binding Buffer 50 mM Tris-HCl pH 7.4, 150 mM NaCl, 1 mM DTT, 0.02% NP-40, room temperature; coomassie and anti-SUMO blot; both purified
T1 sequence: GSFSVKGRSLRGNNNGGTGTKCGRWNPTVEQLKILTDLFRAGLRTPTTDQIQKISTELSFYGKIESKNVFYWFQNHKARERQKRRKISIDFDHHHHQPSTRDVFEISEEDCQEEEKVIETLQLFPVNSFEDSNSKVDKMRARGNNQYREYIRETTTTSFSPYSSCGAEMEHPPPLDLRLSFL

The chains behind the UniProt entries cited, without tags or fusion partners. Where a name states a change or a piece, a line headed by the entry shows the natural chain unless it says otherwise.
UniProt Q9LX29: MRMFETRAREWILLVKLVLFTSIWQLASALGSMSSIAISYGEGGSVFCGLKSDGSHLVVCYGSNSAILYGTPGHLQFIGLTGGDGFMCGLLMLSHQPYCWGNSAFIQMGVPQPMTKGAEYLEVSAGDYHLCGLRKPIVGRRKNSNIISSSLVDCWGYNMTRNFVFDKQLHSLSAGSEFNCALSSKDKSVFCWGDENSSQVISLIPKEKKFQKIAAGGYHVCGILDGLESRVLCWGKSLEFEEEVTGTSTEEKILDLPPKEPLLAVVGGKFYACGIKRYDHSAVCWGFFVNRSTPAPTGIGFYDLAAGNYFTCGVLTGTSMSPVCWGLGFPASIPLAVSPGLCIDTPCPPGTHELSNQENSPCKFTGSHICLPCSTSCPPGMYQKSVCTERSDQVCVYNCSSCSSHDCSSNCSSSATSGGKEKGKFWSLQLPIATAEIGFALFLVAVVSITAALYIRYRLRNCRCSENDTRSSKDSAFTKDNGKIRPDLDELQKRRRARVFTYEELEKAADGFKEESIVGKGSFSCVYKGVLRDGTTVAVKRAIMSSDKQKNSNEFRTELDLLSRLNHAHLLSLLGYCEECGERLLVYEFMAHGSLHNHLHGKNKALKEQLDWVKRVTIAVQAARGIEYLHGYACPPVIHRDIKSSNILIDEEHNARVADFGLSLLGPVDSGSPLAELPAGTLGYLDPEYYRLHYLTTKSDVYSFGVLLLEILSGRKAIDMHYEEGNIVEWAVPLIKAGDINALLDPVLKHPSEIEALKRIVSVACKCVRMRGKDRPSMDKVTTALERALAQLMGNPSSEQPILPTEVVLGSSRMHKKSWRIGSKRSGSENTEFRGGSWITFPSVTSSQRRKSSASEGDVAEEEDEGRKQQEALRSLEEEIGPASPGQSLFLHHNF
UniProt Q9FIJ6: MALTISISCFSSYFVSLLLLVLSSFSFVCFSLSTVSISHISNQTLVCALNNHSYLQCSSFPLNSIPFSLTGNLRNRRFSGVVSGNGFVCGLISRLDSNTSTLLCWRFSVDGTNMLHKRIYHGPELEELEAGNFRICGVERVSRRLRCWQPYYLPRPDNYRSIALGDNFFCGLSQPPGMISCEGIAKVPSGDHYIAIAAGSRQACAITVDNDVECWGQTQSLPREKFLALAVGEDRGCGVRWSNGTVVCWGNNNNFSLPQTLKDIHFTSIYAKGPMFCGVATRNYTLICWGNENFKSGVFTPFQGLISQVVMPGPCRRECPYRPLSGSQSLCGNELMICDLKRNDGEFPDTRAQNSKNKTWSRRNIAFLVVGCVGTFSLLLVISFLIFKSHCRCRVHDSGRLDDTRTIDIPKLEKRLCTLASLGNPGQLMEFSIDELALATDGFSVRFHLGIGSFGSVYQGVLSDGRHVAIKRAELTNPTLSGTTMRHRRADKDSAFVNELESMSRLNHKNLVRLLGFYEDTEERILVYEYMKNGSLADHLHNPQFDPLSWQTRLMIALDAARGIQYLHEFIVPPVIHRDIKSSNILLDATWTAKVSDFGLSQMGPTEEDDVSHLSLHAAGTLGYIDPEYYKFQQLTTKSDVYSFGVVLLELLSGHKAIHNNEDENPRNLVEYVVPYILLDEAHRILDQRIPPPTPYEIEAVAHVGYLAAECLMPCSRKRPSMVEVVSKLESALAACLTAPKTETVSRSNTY
UniProt Q9S7D9: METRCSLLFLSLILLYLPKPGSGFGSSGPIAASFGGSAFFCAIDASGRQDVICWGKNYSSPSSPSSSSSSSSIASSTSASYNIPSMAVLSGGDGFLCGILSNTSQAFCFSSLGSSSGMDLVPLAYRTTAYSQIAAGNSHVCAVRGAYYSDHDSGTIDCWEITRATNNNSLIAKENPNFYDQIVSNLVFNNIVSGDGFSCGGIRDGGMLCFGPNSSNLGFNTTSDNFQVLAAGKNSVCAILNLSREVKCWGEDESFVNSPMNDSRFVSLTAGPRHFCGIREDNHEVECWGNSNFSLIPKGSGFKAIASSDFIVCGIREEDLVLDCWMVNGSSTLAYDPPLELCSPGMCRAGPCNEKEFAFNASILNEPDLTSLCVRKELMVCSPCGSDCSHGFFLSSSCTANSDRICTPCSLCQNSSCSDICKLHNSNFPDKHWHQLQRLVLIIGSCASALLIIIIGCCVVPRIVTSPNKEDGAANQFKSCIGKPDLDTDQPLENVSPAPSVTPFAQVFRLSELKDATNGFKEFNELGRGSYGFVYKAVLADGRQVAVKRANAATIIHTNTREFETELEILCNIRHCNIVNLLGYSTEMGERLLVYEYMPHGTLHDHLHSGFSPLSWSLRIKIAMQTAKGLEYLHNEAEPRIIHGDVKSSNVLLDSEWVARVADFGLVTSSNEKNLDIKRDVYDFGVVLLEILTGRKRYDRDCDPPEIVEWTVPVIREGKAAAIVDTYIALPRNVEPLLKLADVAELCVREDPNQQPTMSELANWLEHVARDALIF
UniProt O80963: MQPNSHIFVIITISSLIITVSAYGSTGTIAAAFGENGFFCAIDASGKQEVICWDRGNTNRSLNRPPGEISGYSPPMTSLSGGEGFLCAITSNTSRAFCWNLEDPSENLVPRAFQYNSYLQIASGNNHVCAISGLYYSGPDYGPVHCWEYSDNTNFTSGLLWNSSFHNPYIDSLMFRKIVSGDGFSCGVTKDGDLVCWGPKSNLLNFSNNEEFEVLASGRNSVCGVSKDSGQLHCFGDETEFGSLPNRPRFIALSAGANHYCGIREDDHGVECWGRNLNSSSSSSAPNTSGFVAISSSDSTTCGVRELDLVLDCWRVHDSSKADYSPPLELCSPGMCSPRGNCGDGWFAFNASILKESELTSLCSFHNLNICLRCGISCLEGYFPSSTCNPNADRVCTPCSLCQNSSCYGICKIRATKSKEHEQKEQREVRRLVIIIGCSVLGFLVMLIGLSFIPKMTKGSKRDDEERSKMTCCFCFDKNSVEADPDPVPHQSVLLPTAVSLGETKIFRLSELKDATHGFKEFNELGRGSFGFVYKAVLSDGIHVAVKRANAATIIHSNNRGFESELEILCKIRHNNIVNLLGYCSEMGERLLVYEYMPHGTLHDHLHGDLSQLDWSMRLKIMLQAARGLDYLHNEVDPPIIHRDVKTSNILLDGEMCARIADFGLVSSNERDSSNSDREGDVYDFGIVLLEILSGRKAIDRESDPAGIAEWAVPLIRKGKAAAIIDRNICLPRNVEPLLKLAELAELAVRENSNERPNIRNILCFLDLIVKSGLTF

[3] = target: SUMO fused ACR4 intracellular domain (sACR4), unphosphorylated (Arabidopsis) (UniProt Q9LX29); test: HDX-MS; sACR4 alone or with sCRK1 (ratios 1:1 or 1:3), unphosphorylated; 50 mM Bis Tris pH 7.2, 25 mM NaCl, 0.1 mM MnCl2, 1 mM DTT in D2O, 10-3600 s at 4°C; pepsin digest; both purified
[4] = target: SUMO fused ACR4 intracellular domain (sACR4), unphosphorylated (Arabidopsis) (UniProt Q9LX29); test: SEC; Superdex G-200 10/300; unphosphorylated proteins alone or mixed at 5 μM each, 1 h at room temperature; 50 mM Tris pH 7.4, 100 mM NaCl, 1 mM DTT, 100 μM MnCl2; fractions analysed by 12% SDS-PAGE; both purified

SUMO fused ACR4 intracellular domain (sACR4), unphosphorylated (from UniProt Q9LX29) (domain or fragment)
binding [1]: binds
binding [2]: binds

SUMO fused CRK1 intracellular domain (sCRK1), unphosphorylated (from UniProt Q9FIJ6) (domain or fragment)
binding [1]: binds
binding [3]: binds
binding [4]: binds

SUMO fused CRR1 intracellular domain (sCRR1), unphosphorylated (from UniProt Q9S7D9) (domain or fragment)
binding [1]: binds

SUMO fused CRR2 intracellular domain (sCRR2), unphosphorylated (from UniProt O80963) (domain or fragment)
binding [1]: binds
binding [4]: binds

Reference: article PMC4355418
